Data taken from patent JP2007300927A.
These are yes or no findings as the source states them, for the method shown. Some results given as binding are weak or reduced against the parent protein; the word gives no strength.

Sequences of proteins named here, by UniProt entry; tags and fusion partners are left off. A change or cut given only in a name is not applied to a line headed by its entry.
UniProt P51654: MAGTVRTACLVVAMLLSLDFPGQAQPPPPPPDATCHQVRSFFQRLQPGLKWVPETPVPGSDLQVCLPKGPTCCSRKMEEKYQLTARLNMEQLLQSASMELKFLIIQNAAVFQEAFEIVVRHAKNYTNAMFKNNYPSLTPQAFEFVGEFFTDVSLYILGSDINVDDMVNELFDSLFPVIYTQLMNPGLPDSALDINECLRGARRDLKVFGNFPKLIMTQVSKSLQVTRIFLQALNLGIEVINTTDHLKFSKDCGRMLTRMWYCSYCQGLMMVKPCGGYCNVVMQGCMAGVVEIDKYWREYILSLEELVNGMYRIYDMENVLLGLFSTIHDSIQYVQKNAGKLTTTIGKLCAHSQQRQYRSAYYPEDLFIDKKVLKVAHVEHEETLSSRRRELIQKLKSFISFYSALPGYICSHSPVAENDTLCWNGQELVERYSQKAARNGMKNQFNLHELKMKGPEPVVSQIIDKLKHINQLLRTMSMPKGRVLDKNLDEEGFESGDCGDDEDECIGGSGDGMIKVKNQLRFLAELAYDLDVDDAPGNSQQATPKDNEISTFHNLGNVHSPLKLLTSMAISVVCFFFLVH

T1: GC-4 (human)
T1 sequence: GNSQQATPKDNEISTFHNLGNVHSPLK


Legend:
[1] = biological target: 分泌型GPC3 (human) (UniProt P51654); assay: immunoprecipitation from HepG2 culture supernatant
[2] = biological target: 分泌型GPC3 (human) (UniProt P51654); assay: immunoprecipitation from HepG2 culture supernatant (Fig. 5 legend)
[3] = biological target: 分泌型GPC3 (human) (UniProt P51654); assay: sandwich ELISA on HepG2 culture supernatant (Fig. 4 legend)
[4] = biological target: 分泌型GPC3 (human) (UniProt P51654); assay: sandwich ELISA on HepG2 culture supernatant, pairs of anti-GPC3 antibodies
[5] = biological target: T1, GC-4 (human); assay: Western blot of GST fusion proteins

Row | Binder | binding [1] | also measured
1 | M6B1 (antibody, V domains shown) VH: EVQLVESGGDLVKPGGSLKLSCAASGFTFSSYAMSWVRQTPEKRLEWVAAINSNGGTTYYPDTMKDRFTISRDNAKNTLYLQMSSLRSEDSALYYCTRHNGGYENYGWFAYWGQGTLVTVSA VL: DIQMTQSPSSLSASLGGKVTITCKASQDINKNIIWYQHKPGKGPRLLIWYTSTLQPGIPSRFSGSGSGRDYSFSISNLEPEDIATYYCLQYDNLPRTFGGGTKLEIK | binds | binding [3]: binds; binding [4]: binds
2 | GC202 (antibody, V domains shown) VH: QVTLKESGPGILQPSQTLSLTCSFSGFSLSTYGMGVGWIRQPSGKGLEWLANIWWHDDKYYNSALKSRLTISKDISNNQVFLKISSVDTADTATYYCAQIAPRYNKYEGFFAFWGQGTLVTVSA VL: DVLMTQTPLSLPVSLGDQASISCRSSQSIVHSNGNTYLEWYLQKPGQSPKLLIYKVSNRFSGVPDRFSGSGSGTDFTLKISRVEAEDLGVYYCFQGSHVPWTFGGGTKLEIK |  | binding [5]: binds
3 | M5B9 (antibody, V domains shown) VH: EVQLQQSGTVLARPGASVKMSCKASGYTFTGYWMHWVKQRPGQGLEWIGAIYPGNSDTNYNQKFKGKAKLTAVTSASTAYMELSSLTNEDAAVYHCTRSGDLTGGLAYWGQGTLVTVSA VL: DIVMTQAAFSNPVTLGTSASISCRSSKSLLHSNGITYLYWFLQKPGQSPQLLIYQMSNLASGVPDRFSSSGSGTDFTLRISRVEAEDVGVYYCAQNLELPYTFGSGTKLEIK | binds | 

Now from value to binder, other results behind:

Row | binding [1] | Binder | also measured
4 | binds | L9G11 (antibody, V domains shown) VH: QVQLQQPGAELVKPGASVKLSCKASGYTFTSYWMHWVKQRPGQGLEWIGTIDPSDSETHYNLQFKDTATLTVDKSSSTAYMQLSSLTSEDSAVYYCIRGAFYSSYSYWAWFAYWGQGTLVTVSA VL: DIVLTQSPTSLAVSLGQSVTISCRASESVEYYGTSLMQWYQQKPGQPPKLLIYGASNVESGVPARFSGSGSGTDFSLNIHPVEEDDIAMYFCQQSRKVPYTFGSGTKLEIK | 
5 | binds | M10D2 (antibody, V domains shown) VH: QVQLQQPGAELVKPGASVKLSCKASGYTFTSYWMHWVKQRPGQGLEWIGEIDPSDSYTYYNQKFRGKATLTVDKSSNTAYMQLSSLTSEDSAVYYCSRSNLGDGHYRFPAFPYWGQGTLVTVSA VL: DIVLTQSPATLSVTPGDRVSLSCRASHSISNFLHWYPQKSHESPRLLIKYASQSISGIPSRFSGNGSGTDFTLSINSVETEDFGMYFCQQSNIWSLTFGAGTKLELK | binding [2]: binds
